From PubChem BioAssay AID540275 (National Center for Advancing Translational Sciences (NCATS), 2011)
Out of some 320,000 compounds screened, about 620 (0.19%) were called active. This list was built around the results that the source calls inconclusive (neither active nor inactive); the mix of calls is not that of the screen. No stated cut-off is given here; in the data, active means activation above about 80%; inconclusive means between about 30% and that limit; inactive means weaker than that.

By UniProt entry, the sequences of proteins in these tests, tags left out.
UniProt Q8NER1, whole entry, looked up: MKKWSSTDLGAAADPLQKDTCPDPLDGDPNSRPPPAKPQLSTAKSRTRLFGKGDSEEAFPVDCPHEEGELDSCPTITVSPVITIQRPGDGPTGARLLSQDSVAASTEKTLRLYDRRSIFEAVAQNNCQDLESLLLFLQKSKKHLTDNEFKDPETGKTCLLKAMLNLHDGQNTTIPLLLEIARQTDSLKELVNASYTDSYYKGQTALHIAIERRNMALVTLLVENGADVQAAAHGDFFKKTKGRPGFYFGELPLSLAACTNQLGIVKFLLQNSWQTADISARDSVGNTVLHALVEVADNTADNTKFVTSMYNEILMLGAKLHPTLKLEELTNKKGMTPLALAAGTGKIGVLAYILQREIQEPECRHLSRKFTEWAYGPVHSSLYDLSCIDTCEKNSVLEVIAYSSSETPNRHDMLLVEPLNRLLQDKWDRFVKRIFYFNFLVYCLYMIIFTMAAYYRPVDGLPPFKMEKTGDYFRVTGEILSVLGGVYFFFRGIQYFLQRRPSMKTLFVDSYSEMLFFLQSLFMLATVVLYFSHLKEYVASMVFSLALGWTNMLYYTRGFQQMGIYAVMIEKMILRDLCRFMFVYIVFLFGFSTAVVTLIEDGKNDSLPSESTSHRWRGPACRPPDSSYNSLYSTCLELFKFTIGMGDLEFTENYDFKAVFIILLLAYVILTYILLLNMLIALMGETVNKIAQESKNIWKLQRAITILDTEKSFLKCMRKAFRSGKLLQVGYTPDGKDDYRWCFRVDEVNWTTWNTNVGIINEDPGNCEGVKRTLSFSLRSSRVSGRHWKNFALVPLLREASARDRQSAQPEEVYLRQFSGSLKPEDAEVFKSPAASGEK

molecular target: Transient receptor potential cation channel subfamily V member 1 (Homo sapiens) (UniProt Q8NER1); assay: HTS Assay for Compounds that Act as Agonists of the Vanilloid Receptor 1; settings: TRPV1-expressing cells, Fluo-8 calcium influx, agonist mode; at 8.33 µM, active compounds read high; further: 0% is about no effect
Procedure, shortened: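 Cells expressing TRPV1 were dye-loaded with Fluo-8 and read kinetically: 10 s baseline, 3 min after compound (agonist portion), then 2 min after EC20 capsaicin (allosteric enhancer portion). Calcium-bound dye fluorescence at 480/520 nm.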

SMILES | activation
Cc1ccc(SCC(=O)Nc2ccccc2N2CCOCC2)cc1 | inconclusive: 36%
COc1ccccc1CNc1ncnc2sccc12 | inactive: 0.195%
CN(c1ccccc1)S(=O)(=O)c1cccc(C(=O)Nc2cccc(C(=O)NC3CC3)c2)c1 | inconclusive: 48.6%
COc1cccc(Cn2c(C3CC3)nc3ccc(NC(=O)c4ccco4)cc3c2=O)c1 | inactive: 0.732%
CC(C)(C)c1ccc(C(=O)Nc2ccccc2Cl)cc1 | inconclusive: 65.4%
CCc1ccc2[nH]c(=O)c(CN(CCN(C)C)C(=S)NCc3ccco3)cc2c1 | inconclusive: 39.4%
CC(C)c1ccc(NC2CCCN(C(=O)c3ccc4nccnc4c3)C2)cc1 (stereo not given) | inconclusive: 66.3%
Cc1ccc(-n2c(C)cc(/C=c3/sc4nc5ccccc5n4c3=O)c2C)cc1 | inactive: 0.821%
O=C(Nc1ccccc1)Nc1ccc2snnc2c1 | inconclusive: 69.9%
Cc1cc(NC(=O)c2cc(-c3ccccn3)nc3ccc(Br)cc23)no1 | inconclusive: 30.9%
CCOC(=O)c1ccc(N/C=C2\CCCCC2=O)cc1 | inconclusive: 60.6%
COc1ccc(C2/C=C\CN(C(=O)c3ccc(C)cc3)[C@H](Cc3ccccc3)C(=O)N2Cc2ccc(F)cc2)cc1 (stereo not given in full) | inconclusive: 42.8%
CCN(CC)C(=O)c1[nH]cnc1C(=O)N[C@@H](Cc1ccccc1)C(=O)OCc1ccccc1 | inconclusive: 30.4%
O=C(c1cc(-c2ccc(F)cc2)on1)N1CCOCC1 | inconclusive: 69%
N/C(=N\OC(=O)CCC1CCCCC1)c1cccc([N+](=O)[O-])c1 | inconclusive: 39.7%
CCc1ccc(C(=O)Nc2nc(C)cs2)s1 | inconclusive: 55.5%
Cc1cc(C(=O)OCC(=O)NCc2ccco2)c(C)n1-c1ccccc1 | inconclusive: 33.4%
Cc1snc(SCC(=O)N/N=C(\N)COc2cccc(C(F)(F)F)c2)c1C#N | inactive: 0.27%
CC(=O)NCc1ccc(-c2csc(-c3cccs3)n2)cc1 | inconclusive: 49.6%
CC(C)c1ccc(NC(=O)c2ccccc2NC(=O)C2CCCCC2C(=O)O)cc1 (stereo not given) | inconclusive: 31.1%
O=C(/C=C/c1cccc(Cl)c1)Nc1ccncc1 | inconclusive: 77.7%
CCNC(=S)NS(=O)(=O)c1ccc(CC)cc1 | inactive: -2.54%
COc1ccc(-c2[nH]ncc2CN2CCC(C(=O)c3ccc(F)cc3)CC2)cc1 | inactive: -0.961%

SMILES | activation
CC(C)(C)c1ccc(-c2nc(C#N)c(N3CCC(C(N)=O)CC3)o2)cc1 | inconclusive: 48.1%
CCCOc1ccc(-c2nnc(-c3cccs3)o2)cc1 | inconclusive: 31.2%
CC1(c2ccc(OC(F)F)cc2)NC(=O)N(CC(=O)Nc2ccccc2)C1=O (stereo not given) | inactive: 26.4%
O=C1Nc2ccccc2/C1=C/c1ccc([N+](=O)[O-])cc1 | inactive: -6.06%
O=C(NCCc1csc(-c2ccccc2)n1)c1cccs1 | inconclusive: 53.7%
O=C(CSc1nc2ccc(Cl)cc2[nH]1)NC1CCCc2ccccc21 (stereo not given) | inconclusive: 58.6%
Fc1ccc(C2CC(c3ccco3)n3ncnc3N2)cc1 (stereo not given) | inactive: -0.0419%
Cc1ccc(COC(=O)CCCN=C2NS(=O)(=O)c3ccccc32)cc1 | inconclusive: 39.6%
COc1cccc(-c2cc(C(=O)N3CCCCC3C)no2)c1 (stereo not given) | inconclusive: 45%
O=C(Nc1cccnc1)c1ccc(Oc2ccccc2)cc1 | inconclusive: 71.5%
CC(C)CCNC(=O)/C=C/c1ccc(Br)cc1 | inconclusive: 33.1%
Cc1ccc(CSc2nnc(-c3cccc(S(=O)(=O)N4CCOCC4)c3)n2CC(C)C)cc1 | inconclusive: 71.3%
Cc1cc(Cl)ccc1C(=O)C1CCCN(C(=O)c2cnsn2)C1 (stereo not given) | inactive: 14.3%
COc1ccc(-c2nc(C#N)c(N3CCCCCC3)o2)cc1 | inconclusive: 33.1%
COc1ccc(C(CC(=O)N2CCCC(C)C2)c2c(OC)cc(OC)c3ccc(=O)oc23)cc1 (stereo not given) | inconclusive: 45.6%
CC(=O)Nc1ccc(S(=O)(=O)N2CCN(C(=O)Cc3ccccc3)CC2)cc1 | inactive: -1.6%
C#CCOCCOCCOCCNc1nc(N2CCN(C(=O)[C@H]([C@@H](C)CC)n3cc([C@@H](N)CC(C)C)nn3)CC2)nc(N2CCN(C(=O)[C@H](CCCCN)n3cc([C@@H](N)CC(C)C)nn3)CC2)n1 | inactive: -2.98%
CC(=O)c1cc(-c2ccccc2)n(CCC(=O)NC2CCCCCCC2)c1C | inconclusive: 66.6%
O=C(Nc1cccc(-c2cnc3ccccc3n2)c1)c1ccncc1 | inconclusive: 53.8%
CC(C)NC(=O)c1cc(-c2ccc(Br)cc2)on1 | inconclusive: 72.1%
CCOCCCNC(=O)CN1C(=O)CSc2cc(S(=O)(=O)N3CCCCCC3)ccc21 | inactive: -0.649%
O=C1c2cccc3cccc(c23)C(=O)N1CC1CCN(CC(O)COc2ccc3ccccc3c2)CC1 (stereo not given) | inactive: 8.76%
CN(C)c1ccc(/C=C/c2ccc3ccccc3n2)cc1 | inactive: 25.9%

Some of the entries so far, as tab-separated lines:
SMILES	activation
COc1ccc(C(CC(=O)N2CCCC(C)C2)c2c(OC)cc(OC)c3ccc(=O)oc23)cc1 (stereo not given)	inconclusive: 45.6%
CN(C)c1ccc(/C=C/c2ccc3ccccc3n2)cc1	inactive: 25.9%

Additional compounds:

SMILES | activation
O=C(NC(=S)NC1CCCCC1)c1ccccc1[N+](=O)[O-] | inconclusive: 30.6%
CC(C)CC(=O)NC(=S)Nc1ccccc1F | inactive: -1.82%
COc1ccc(S(=O)(=O)N2CCC(n3cnc4cc(C(F)(F)F)ccc43)CC2)cc1 | inactive: 29.9%
Cc1ccc(CSCc2ccc(C(=O)NC3CC3)o2)cc1 | inconclusive: 58.1%
CC(C(=O)NCC1CCCCC1)N(C)Cc1ccc(Cl)cc1 (stereo not given) | inconclusive: 48.6%
O=C(/C=C/c1ccc(Cl)cc1)NC1CC2CCC1C2 (stereo not given) | inconclusive: 47.8%
Cc1nc(SCC(=O)N2CCN(C(=O)c3cccs3)CC2)c2c(C)c(C)sc2n1 | inactive: 12.7%
O=C(COc1ccc(C2SCCS2)cc1)Nc1ccc(Cl)cc1 | inconclusive: 42.3%
O=C(/C=C/c1ccc2c(c1)OCO2)N1CCOCC1 | inconclusive: 58.8%
O=C(NCCN1CCOCC1)c1ccc(/C=C2\Sc3ccccc3N(Cc3ccccc3F)C2=O)cc1 | inactive: 12.1%
O=C(Nc1ccccc1N1CCN(C(=O)c2ccccc2)CC1)c1cc(Br)ccc1Cl | inconclusive: 36.1%
Cc1ccc2nc(SC(C(=O)Nc3ccc(F)cc3)c3ccccc3)[nH]c2c1 (stereo not given) | inconclusive: 41.5%
COc1ccc(NC(=O)CN(C)S(=O)(=O)c2ccc3c(c2)CCC(=O)N3)c(OC)c1 | inconclusive: 40.2%
Cc1cccc(OC2(c3ccccc3)OC(=O)c3ccccc32)c1C (stereo not given) | inconclusive: 35.4%
CCN1N=C(c2ccccc2)Cn2c1nc1ccccc12 | active: 89.6%
O=C(CSc1ccc(Cl)cc1)NC(=O)c1ccccc1 | inconclusive: 33.4%
CC(=O)NNC(=S)NC(=O)C(c1ccccc1)c1ccccc1 | inactive: -1.93%
Cc1cc(/C=N/Nc2nc(N3CCOCC3)nc(N3CCOCC3)n2)c(C)n1-c1ccccc1 | inactive: 0.462%
O=C(CCSCc1ccccc1Cl)NCc1ccco1 | inconclusive: 36.9%
O=C1NNC(c2ccccc2)=N/C1=C\c1ccccc1Cl | active: 94%
CCOC(=O)[C@H]1[C@H]2COc3ccc(Br)cc3[C@@H]2N2C(=O)c3ccc(C)cc3NC(=O)[C@@]12C | active: 80.5%
COc1cccc(C(=O)NCCC2=CCCCC2)c1OC | inconclusive: 49.5%
CCOc1ccccc1NC(=O)C(c1ccccc1)N1CCN(CC(=O)N2CCOCC2)CC1 (stereo not given) | inconclusive: 45.7%

3 entries already listed, arranged by SMILES length, rising.
SMILES | activation
O=C(CCSCc1ccccc1Cl)NCc1ccco1 | inconclusive: 36.9%
O=C(/C=C/c1ccc2c(c1)OCO2)N1CCOCC1 | inconclusive: 58.8%
O=C(NCCN1CCOCC1)c1ccc(/C=C2\Sc3ccccc3N(Cc3ccccc3F)C2=O)cc1 | inactive: 12.1%

(next part)

SMILES | activation
CC(C)NC(=O)c1ccc(C(C)C)cc1 | inconclusive: 46.6%
Cc1ccc(NC(=O)c2ccc(OC(=O)COc3ccc(Cl)c(C)c3)cc2)cc1 | inconclusive: 70.9%
CCN1C(=O)c2cccc3c(NC(=O)c4ccc5c(c4)OCCO5)ccc1c23 | inconclusive: 43.8%
O=C(Cc1cccs1)Nc1cccc(-c2nnc(-c3ccco3)o2)c1 | inconclusive: 73%
Cc1cc(C(=O)NNc2ccc(F)cc2)no1 | inactive: -0.328%
CCOC(=O)N1CCN(c2cc3[nH]c(=S)[nH]c3cc2F)CC1 | inactive: 1.15%
COc1ccc(S(=O)(=O)N(CC(=O)NC2CC2)C2CCCCC2)cc1Cl | inconclusive: 33.5%
COc1cccc(C(=O)N2CCN(Cc3ccccc3C(F)(F)F)CC2)c1 | inconclusive: 38.7%
CCCn1c(C(Cc2ccccc2)NC(=O)COC)nc2ccccc21 (stereo not given) | inconclusive: 52.2%
O=C(O)CN1C(=O)/C(=C/C=C/c2ccccc2)SC1=S | inactive: -3.13%
C=CCNC(=S)Nc1cccc([N+](=O)[O-])c1 | inconclusive: 57%
Cc1nn(-c2ccc(F)cc2)c(Cl)c1/C=N/NC(=O)c1ccc(O)cc1 | inconclusive: 40.1%
COc1ccccc1Nc1nc(N2CCOCC2)nc(N2CCOCC2)n1 | inconclusive: 33.5%
COC(=O)C1CSC(C(=O)OC)N1C(=O)Nc1ccc(Cl)cc1 (stereo not given) | inactive: -1.48%
CCc1ccc(Nc2nnc(SCC(=O)NC(=O)c3cccn3C)s2)cc1 | inconclusive: 30.4%
CCC(C(=O)Nc1ccc2[nH]ncc2c1)c1ccccc1 (stereo not given) | inconclusive: 43.2%
O=C(Nc1nc2ccc(F)cc2s1)c1cccs1 | inconclusive: 63.3%
CCN(Cc1ccccc1)C(=O)c1cc2c(OC)c(OC)c(OC)cc2[nH]1 | inconclusive: 42.5%
Cc1cc(C)c(C(=O)N2CCCC(Nc3ccc(C)c(C)c3)C2)o1 (stereo not given) | active: 96.8%
COc1cc(O)oc1C=Nc1ccc(Oc2ccccc2)cc1 | inconclusive: 45.3%
COc1ccc(C(=O)NC(=S)Nc2ccc3oc(=O)ccc3c2)cc1OC | inactive: -1.66%

Some of the entries so far, with each value named:
O=C(Nc1nc2ccc(F)cc2s1)c1cccs1
  activation: inconclusive: 63.3%
CCN(Cc1ccccc1)C(=O)c1cc2c(OC)c(OC)c(OC)cc2[nH]1
  activation: inconclusive: 42.5%
